# Assay results: article PMC8150921
# Chains of the proteins cited; added tags and fusions are not shown. Residues count along the entry.
# UniProt P04629, residues 33-796: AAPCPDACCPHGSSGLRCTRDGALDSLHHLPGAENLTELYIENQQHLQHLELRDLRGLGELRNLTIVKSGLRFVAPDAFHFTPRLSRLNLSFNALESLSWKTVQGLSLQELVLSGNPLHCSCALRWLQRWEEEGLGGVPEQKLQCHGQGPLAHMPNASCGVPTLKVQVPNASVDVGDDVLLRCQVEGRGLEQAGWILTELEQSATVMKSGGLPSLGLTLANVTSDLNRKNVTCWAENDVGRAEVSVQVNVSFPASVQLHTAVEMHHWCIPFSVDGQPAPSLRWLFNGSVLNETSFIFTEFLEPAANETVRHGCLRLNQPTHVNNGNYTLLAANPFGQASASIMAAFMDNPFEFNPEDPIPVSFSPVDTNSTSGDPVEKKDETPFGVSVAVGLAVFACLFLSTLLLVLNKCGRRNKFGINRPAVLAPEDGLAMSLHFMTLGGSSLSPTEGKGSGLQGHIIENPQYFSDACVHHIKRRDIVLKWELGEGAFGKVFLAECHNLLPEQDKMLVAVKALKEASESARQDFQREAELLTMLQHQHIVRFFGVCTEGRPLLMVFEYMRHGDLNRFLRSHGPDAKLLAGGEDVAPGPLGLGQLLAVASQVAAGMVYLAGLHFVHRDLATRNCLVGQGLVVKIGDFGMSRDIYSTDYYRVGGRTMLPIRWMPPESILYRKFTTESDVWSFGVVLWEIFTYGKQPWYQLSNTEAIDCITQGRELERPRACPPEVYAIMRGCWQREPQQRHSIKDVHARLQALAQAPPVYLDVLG
# UniProt P40763: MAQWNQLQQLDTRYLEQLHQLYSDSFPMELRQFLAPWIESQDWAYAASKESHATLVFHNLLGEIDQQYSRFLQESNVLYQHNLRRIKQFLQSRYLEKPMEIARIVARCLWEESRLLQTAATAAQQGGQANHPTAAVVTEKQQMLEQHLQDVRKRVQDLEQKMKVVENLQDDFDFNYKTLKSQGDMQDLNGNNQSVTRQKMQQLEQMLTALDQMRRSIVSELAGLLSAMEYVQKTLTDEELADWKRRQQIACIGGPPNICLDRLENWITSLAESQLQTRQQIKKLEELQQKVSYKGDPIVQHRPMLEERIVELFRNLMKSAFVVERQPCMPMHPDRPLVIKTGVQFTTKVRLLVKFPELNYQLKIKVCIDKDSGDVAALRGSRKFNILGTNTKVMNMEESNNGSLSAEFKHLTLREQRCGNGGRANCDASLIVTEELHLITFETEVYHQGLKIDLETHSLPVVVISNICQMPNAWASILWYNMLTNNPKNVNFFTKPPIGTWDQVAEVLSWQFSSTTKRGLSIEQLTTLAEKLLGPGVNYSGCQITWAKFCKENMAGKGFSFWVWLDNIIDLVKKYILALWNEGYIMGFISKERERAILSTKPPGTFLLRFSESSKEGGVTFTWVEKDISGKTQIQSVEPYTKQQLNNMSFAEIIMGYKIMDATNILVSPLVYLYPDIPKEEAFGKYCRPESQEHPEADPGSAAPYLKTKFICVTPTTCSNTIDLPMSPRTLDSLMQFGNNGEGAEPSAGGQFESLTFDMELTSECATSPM
# Results are given in words; binding and its absence hold for the method and conditions named. In cells and extracts the contact can be indirect. Some entries that bind do so weakly or less than the wild type.
# Key:
# [1] = target: p-TrkA (Y490) in HEK293 cells (human (endogenous in HEK293)) (UniProt P04629); experiment: co-IP; reciprocal IP with p-TrkA (Y490) antibody on Dynabeads Protein G from lysates of HEK293 cells transfected with STAT3-Flag, overnight at 4 °C, Western blot
# [2] = target: endogenous p-TrkA (Y490) of MDA-MB-468 cells (human (endogenous in MDA-MB-468)) (UniProt P04629); experiment: co-IP; IP of endogenous p-TrkA (Y490) from MDA-MB-468 lysate with p-TrkA (Y490) antibody on Dynabeads Protein G, overnight at 4 °C, Western blot for STAT3
# [3] = target: flag-tagged STAT3 (STAT3-WT-Flag) (UniProt P40763); experiment: co-IP; Flag antibody IP from lysates of transfected HEK293 cells, Western blot for p-TrkA and total TrkA
Substance,binding [3],other results
flag-tagged STAT3 (STAT3-WT-Flag) (from UniProt P40763 1-770),,binding [1]: binds
endogenous STAT3 of MDA-MB-468 cells (from UniProt P40763 1-770),,binding [2]: binds
p-TrkA (Y490) in HEK293 cells (from UniProt P04629 33-796) (receptor),binds,
TrkA (total TrkA) in HEK293 cells (from UniProt P04629 33-796) (receptor),binds,
